No constants are given. Whether binding was seen depends on the method and setting. Binding seen in cells or lysates may run through a third protein. These calls come from enrichment with a bait or labelling near it, and not all partners need be listed.

From article PMC10869362 come the findings set out here.

B1: Vacuolar protein sorting 16A (Vps16A), endogenous in S2 cells (protein, UniProt Q9VHG1 1-833)
chain: MPIMYNTGEWFKVRPDYYRKVELATPDWPLDLDLEYMWVEVAPYGGPLAVTRDPTKLVPVKGNARPMIRIFDTTGREMGHILWNHGKLIAMGWSDMEELICIQENATVFVYDMFGREKESYSIGDEASVTKIVEGKVFQSSAGTGVAVMTTSGRVFLKQNSSKTERKLPDIPNSSMNCSCWEIVTEGRNSYCLLGRDREVIKLFPGETVGTITANLFEKPHERIIKISVSYNHQHLALYTNTGLLWLGSVDMRQKYCEFDTGRKDMPLQMEWIMNSDNSEADAVVISYPSYLLIVNRNADRSDFPYDPVMFLVAEMDGVRIITQSSHEIIQRLPKCVENIFAVNSQEPASYLFEAQKKFEEKSYKSDEYLSMCREKIDLAVSECIEAASYEFCPETQKSLLRTAYFGKGFIRNHNPDEYMRIMRILRVLNTLRHERIAMPITFKQFSHLNTEVILSRLVFRKHYAIAIQVAKHLNLPESWILEHWAYHKVMNDPNDTEVARKITEKFKNPSVEGISFCNIASKAHQAGRDDLAIKLLELESRASLHVPLLLKMRKFDRAVGSATQSGDTELITQVLLEMKMHMMLSNLHMTIRDHPLALNIYKKIMRESNRAGLYGIYNTEDDQKAIAEYHFQNAIETEGLESNLSMIGNAYAQGRCTLEAELCADTSRLIKLQKTLSTKYNVSLNGLSIHETIQELLLIGELKEAERIRSEFKVPDRRFWWLRILTLSSQHKWEELEKLAKSKKSPIGYDPFVEVCLKQDNVMEARKYIPRCRDNRRVVWYMRANLFNEAIDSAFEQRDVHSLFELQKNQAIVNNGTLLSKVCDCIAMLEGK
B2: deep orange (dor), endogenous in S2 cells (protein, UniProt Q24314 1-1002)
chain: MDTSMPNQPKFLPRIEHNSSGATANSYVATASGNPFETDEEDEIFSRHKMVLRVPSNCTGDLMHLAVSRNWLVCLLGTPERTTLLRFFLPRAIPPGEAVLEKYLSGSGYKITRMFLDPTGHHIIIALVPKSATAGVSPDFLYIHCLESPQAQQLKVRRIEKFKDHEITAVAFNPYHGNESSTGPILLGTSRGLIFETELNPAADGHVQRKQLYDLGLGRPKYPITGLKLLRVPNSSRYIIVVTSPECIYTFQETLKAEERSLQAIFAGYVSGVQEPHCEERKTDLTFSQLRFFAPPNSKYPKQWAWLCGEGIRVGELSIEANSAATLIGNTLINLDFEKTMHLSYGERRLNTPKAFVLTEYHAVLLYADHVRAICLLNQEQVYQEAFDEARVGKPLSIERDELTGSIYVYTVKTVFNLRVTREERNVWRIYLDKGQYELATAHAAEDPEHLQLVLCQRADAAFADGSYQVAADYYAETDKSFEEVCLKFMVLPDKRPIINYVKKRLSRVTTKPMETDELDEDKMNIIKALVIWLIDLYLIQINMPDKDEEWRSSWQTEYDEFMMEAHVLSCTRQNRETVRQLIAEHADPRNMAQFAIAIGDYDEVVAQQLKAECYAEALQTLINQRNPELFYKYAPELITRLPKPTVDALMAQGSRLEVEKLVPTLIIMENREQREQTQRYLEFAIYKLNTTNDAIHNFLLHLYAEHEPKLLMKYLEIQGRDESLVHYDIYYAHKVCTDLDVKEARVFLECMLRKWISAVDLALTFDMKLAKETASRPSDSKIRRKLWLRIAYHDIKGTNDVKKALNLLKECDLLRIEDLLPFFADFEKIDNFKEAICDALRDYNQRIQELQREMAETTEQTDRVTAELQQLRQHSLTVESQDTCEICEMMLLVKPFFIFICGHKFHSDCLEKHVVPLLTKEQCRRLGTLKQQLEAEVQTQAQPQSGALSKQQAMELQRKRAALKTEIEDILAADCLFCGLLISTIDQPFVDDWEQVNVEWE
B3: light (lt), endogenous in S2 cells (protein, UniProt Q7PL76 1-841)
chain: MAKALPLISCDSWADSINEEDVEPKFKYHRLANDLKYMLNADVITCSAVHLKFLIFGTFRGRVCIFDHQGNSVYSNLSASERHTHQVAVNNIDVDHKGEYVATCSDDGKVNITGLFSSDNNHSLSFGKFIKVVSLEPDSKAHIKRFVVGDDKLILYERNLLKKLKPVELCSVEGSVLSICWHGNFIAWASHIGVRVYDLNERCSLGLIKWEVPPQERLENFRCHLRWSNKHTLLIGWVDTIRVCVIRKRNSIEASTGNLPVYIVDPISTFQTTFYVCGLAPLSAKQLVVLGFRKEKSSCFKALRPVLCVIEYKMNNSEEICTDSLTLRGFEEYTVNDYSLGGIIEENRFYIVAPKDIVVASLIETDDRIEWLIKHSKFEEAMELISANGGNVPVLSVAKLYINHLLALKKYDDAAKLCLRMLGNDKVLWEEEVFKFVKCQQLRSVSAYLPTSDECKLDPHVYEMVLYEFLKFDVCGFLNLIKEWPSHLYDGLAVINAIHDNFRKHYANQLLESLALLYSYQGDFESALRMYLKLQNKDVFQLIRRYELYDVISKLIIPLIQLDRDCAFEILLDKKKIKTEIVVHQLEHNQEYLYWYLDSLLKKDPSNVFQKKLISLYAIFDRNKLLPFLKRSKDYDIQEALVICKQENFYPEIVYLLGCMGGVEASEALNIIIHRIRDIEMAIEFCKEHDDSDLWNALINEFSKHPEIVTKVLDGIVDYFSPAVVVGKIKMGQNIPNLRQSLIKMLRHYNLQGEILSSAQQIQLNDYFEIHSEIVTTQRRGQQVSYEQLCSLCHRPVLMAGTHLYCIIRLECGHVYHKPCIQGELLKNCNECNLWKLTVGK

In the test the target is detour:GFP (GFP-tagged detour, CG14435) (Drosophila) (UniProt Q9W3V3). In words: affinity purification with mass spectrometry; GFP-Trap_MA beads on soluble extracts of S2 cells expressing detour:GFP or GFP alone, NP-40 lysis buffer, overnight at 4 °C, glycine pH 2.5 elution; three replicates, compared with GFP and with the input.
In the case of B1, the binding result is reported as “binds”.

Consider B2, for which the binding result is “binds”.

Consider B3, for which the binding entry is listed as “binds”.
